Experimental data published in PMC12261106.
The exact form of at least one protein or probe is not confirmed.

Test system: LcRAP2.4 (Litchi chinensis Sonn.)
Experiment: EMSA
Settings: LightShift Chemiluminescent EMSA kit, nondenaturing polyacrylamide gel; pH and temperature not stated; recombinant protein; protein details: GST (pGEX-4T, N-terminal)

Sequence: TCTTGAGGACGGCAAAGGTCGGTGTCGGTGATGTTTGAAC (double strand) [LcPIP1;4 promoter DRE/CRT probe]
- binding result: binds
